Results are given in words; binding and its absence hold for the method and conditions named. Binding seen in cells or lysates may run through a third protein. Binding calls can cover weak binding; strength is not graded here. Where a sequence is shown, tags or fusion partners need not be part of it.

Sequences of proteins named here, by UniProt entry; tags and fusion partners are left off. A change or cut given only in a name is not applied to a line headed by its entry.
UniProt Q9UK99: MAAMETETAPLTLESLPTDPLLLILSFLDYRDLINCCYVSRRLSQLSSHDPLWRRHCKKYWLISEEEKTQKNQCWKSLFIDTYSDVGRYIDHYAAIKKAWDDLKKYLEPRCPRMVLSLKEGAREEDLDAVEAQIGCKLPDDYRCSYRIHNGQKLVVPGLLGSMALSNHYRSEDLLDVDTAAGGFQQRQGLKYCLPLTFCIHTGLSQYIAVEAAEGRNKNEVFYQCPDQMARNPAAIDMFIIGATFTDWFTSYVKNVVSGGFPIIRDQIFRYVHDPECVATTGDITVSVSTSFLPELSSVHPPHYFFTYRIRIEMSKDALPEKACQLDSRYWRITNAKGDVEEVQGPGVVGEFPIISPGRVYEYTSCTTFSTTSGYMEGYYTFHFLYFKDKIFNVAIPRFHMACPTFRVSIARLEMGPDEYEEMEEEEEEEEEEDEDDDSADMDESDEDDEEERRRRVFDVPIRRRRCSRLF

The target in this test is T1, Flag-USP4 (UniProt Q13107).
T1 sequence: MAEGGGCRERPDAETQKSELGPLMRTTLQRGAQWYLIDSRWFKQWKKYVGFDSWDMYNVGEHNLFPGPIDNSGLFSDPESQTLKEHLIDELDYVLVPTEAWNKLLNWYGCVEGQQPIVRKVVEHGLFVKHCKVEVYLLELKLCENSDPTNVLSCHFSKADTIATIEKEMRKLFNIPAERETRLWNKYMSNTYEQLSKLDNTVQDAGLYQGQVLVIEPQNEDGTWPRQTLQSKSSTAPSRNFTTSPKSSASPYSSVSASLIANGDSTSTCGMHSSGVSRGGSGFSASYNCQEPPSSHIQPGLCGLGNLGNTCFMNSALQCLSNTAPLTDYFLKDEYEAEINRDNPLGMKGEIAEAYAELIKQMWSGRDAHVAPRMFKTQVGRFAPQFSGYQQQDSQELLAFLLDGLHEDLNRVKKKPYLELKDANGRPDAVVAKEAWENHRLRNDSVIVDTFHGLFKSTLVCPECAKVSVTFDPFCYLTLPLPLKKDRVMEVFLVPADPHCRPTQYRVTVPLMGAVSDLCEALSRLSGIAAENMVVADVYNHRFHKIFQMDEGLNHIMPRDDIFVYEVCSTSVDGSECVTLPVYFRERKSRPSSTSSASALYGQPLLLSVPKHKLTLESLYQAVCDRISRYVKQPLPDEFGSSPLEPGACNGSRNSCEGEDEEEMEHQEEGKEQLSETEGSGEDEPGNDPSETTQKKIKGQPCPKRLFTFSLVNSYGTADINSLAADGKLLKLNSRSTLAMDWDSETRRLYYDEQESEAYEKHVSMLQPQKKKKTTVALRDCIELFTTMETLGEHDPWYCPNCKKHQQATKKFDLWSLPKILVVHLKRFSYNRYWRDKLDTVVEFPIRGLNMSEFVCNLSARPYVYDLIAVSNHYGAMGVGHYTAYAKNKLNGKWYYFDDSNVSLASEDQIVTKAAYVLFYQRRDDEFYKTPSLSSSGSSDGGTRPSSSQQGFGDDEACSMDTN
Kind of test: co-IP; Fig 4F: HEK293T co-transfected with Flag-USP4 and HA-FBXO3, HA-FBXO3^ΔApaG, HA-FBXO3^ΔF or vector for 36 h, then 0.5 μm Tosedostat for 16 h; IP-western; FLAG/HA M2-conjugated agarose beads, 4°C overnight; which tag was precipitated is not told.

For HA-FBXO3^ΔF (from UniProt Q9UK99), the binding result is “binds”.
The value for HA-FBXO3^ΔApaG (from UniProt Q9UK99) was “no binding”.
